# Assay results as given in PubChem BioAssay AID504467 (National Center for Advancing Translational Sciences (NCATS), 2011).
# Out of some 330,000 compounds screened, about 7,700 (2.3%) were called active. Inconclusive means that the source gave no clear call. Such entries were picked first, then a sample of the others. The call rests on the fitted dose curve; in most records, active means well fitted inhibition curve with a large enough effect; inconclusive means small, poorly fitted or top-dose-only effect, or effect the other way; inactive means flat fitted curve, though single readings scatter. Potencies of inconclusive entries are doubtful fits and often do not repeat.
# Assay: qHTS screen for small molecules that inhibit ELG1-dependent DNA repair in human embryonic kidney (HEK293T) cells expressing luciferase-tagged ELG1; further: nearly all actives have a fitted effect of over 55% in size
# Conditions: HEK293T ELG1-luciferase reporter, luminescence, 16 h, DNA damage induced by 5-fluorouridine; series mostly up to 46.1 µM
# In short: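 5-Fluorouridine DNA damage + compound/DMSO, 2,000 cells/well, 16 h, 37 °C/5% CO2. ONE-Glo, 30 min RT, luminescence. Readout = decrease in reporter signal.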
# Potency means the concentration at half of the fitted maximal effect.
row,Compound,Potency
1,COc1ccccc1C(=O)Nc1nnc(S(=O)(=O)N2CCC(C)CC2)s1,"inconclusive: 16.4 µM [activator, single point]"
2,COc1ccc(CCNC(=S)NC(=O)c2ccccc2)cc1C,active: 13 µM
3,O=C1OC[C@H]2CCCN2C(=O)[C@@H](CC(=O)N(CCO)Cc2ccccc2)C/C=C\CC[C@@H]1Cc1ccc(F)cc1,"inconclusive: 0.651 µM [inhibitor, partial curve]"
4,CC(C)C(=O)N=c1sc2cc(F)cc(F)c2n1C,"inconclusive: 29.1 µM [activator, single point]"
5,COc1ccc(CNC(=O)COC(=O)Cc2ccc(Br)cc2)cc1,inactive
6,Cc1ccc(-c2csc(NC(=O)c3ccco3)n2)cc1C,"inconclusive: 2.06 µM [activator, full curve]"
7,Cc1c(F)cccc1NC(=O)c1ccc2c(c1)CCN2S(C)(=O)=O,inactive
8,N#C/C(=N\Nc1ccc(S(=O)(=O)N2CCCCCC2)cc1)C(N)=S,active: 20.6 µM
9,CC(C)C[C@H](NC(=O)N1CC(=O)Nc2ccccc21)C(=O)N[C@@H](Cc1ccccc1)C(=O)O,inactive
10,O=C(N1CCCCC1)N1CCN(S(=O)(=O)c2ccc(Cl)cc2)CC1,"inconclusive: 20.6 µM [activator, partial curve]"
11,COc1ccccc1N1CCN(C(=O)Cn2nnc(-c3cccs3)n2)CC1,inactive
12,O=C(Nc1cccc2cccnc12)c1cccc(Cl)c1,"inconclusive: 20.6 µM [activator, partial curve]"
13,CCOc1ccc(NC(=S)NC(=O)/C=C/c2ccco2)cc1,"inconclusive: 1.26 µM [activator, partial curve, poor fit]"
14,CC(=O)NC1=C(C#N)C(c2ccccc2)c2c(ccc3ccccc23)O1 (centres undefined),"inconclusive: 29.1 µM [inhibitor, single point]"
15,CN1C(N)=NC(=O)/C1=C/c1ccc(OC(F)(F)F)cc1,"inconclusive: 13 µM [activator, single point]"
16,CCn1c(=O)c2cc(C(=O)N(C)c3ccccc3F)sc2c2ccccc21,"inconclusive: 29.1 µM [inhibitor, single point]"
17,CC(NC(=O)CSc1ccccc1C(=O)O)C1CC2CCC1C2 (centres undefined),inactive
18,COc1ccc(CCNC(=O)Cn2c(=O)[nH]c3ccsc3c2=O)cc1OC,inactive
19,Cc1ccc(NC(=O)CSc2nnc(N)s2)cc1S(=O)(=O)N1CCOCC1,inactive
20,CC(C)Cc1nnc(NC(=O)CN2C(=O)NC3(CCCC3)C2=O)s1,inactive
21,c1ccc(-c2ccc(-c3ccccn3)nn2)nc1,"inconclusive: 0.651 µM [activator, full curve]"
22,CCOC(=O)C1CCN(C(=O)c2c(C)oc3c2C(=O)c2ccccc2C3=O)CC1,"inconclusive: 29.1 µM [inhibitor, single point]"

# For convenience, part of the list above:
row,Compound,Potency
14,CC(=O)NC1=C(C#N)C(c2ccccc2)c2c(ccc3ccccc23)O1 (centres undefined),"inconclusive: 29.1 µM [inhibitor, single point]"
15,CN1C(N)=NC(=O)/C1=C/c1ccc(OC(F)(F)F)cc1,"inconclusive: 13 µM [activator, single point]"

# (next part)

row,Compound,Potency
1,COc1ccc(CC(=O)Nc2cc(C)c3c(=O)oc4ccccc4c3n2)cc1,"inconclusive: 4.61 µM [inhibitor, single point]"
2,CC#C[C@@H](CC)c1ccc2ccn(C)c2c1,"inconclusive: 20.6 µM [activator, partial curve, poor fit]"
3,COc1cccc(CNc2ccc(F)c(Cl)c2)c1,"inconclusive: 32.6 µM [activator, partial curve, poor fit]"
4,CCN1CCN(S(=O)(=O)c2ccc(Cl)c(C(=O)N(C)Cc3cccc(OC)c3)c2)CC1,"inconclusive: 1.16 µM [inhibitor, single point]"
5,CSc1nc(O)c(N=Nc2ccc(F)cc2F)c(=O)[nH]1,"inconclusive: 18.3 µM [activator, partial curve]"
6,CCN(c1ccc(OC)cc1)S(=O)(=O)c1ccc(-c2cc(C)no2)s1,inactive
7,O=C(Nc1ccc2c(c1)OCCO2)c1cccc(Cl)c1,"inconclusive: 2.91 µM [activator, full curve]"
8,O=C(O)CSc1ncnc2sc(-c3ccccc3)cc12,inactive
9,O=C(Nc1nnc(Cc2c[nH]c3ccccc23)s1)c1ccc(Cl)cc1Cl,"inconclusive: 29.1 µM [activator, single point]"
10,O=C(c1ccccc1)N1CCSc2sccc2C1=O,"inconclusive: 2.59 µM [activator, partial curve]"
11,O=C(COc1cccc(C(F)(F)F)c1)Nc1ccc(S(=O)(=O)N2CCCC2)cc1,"inconclusive: 5.17 µM [inhibitor, partial curve]"
12,CCC(=O)Oc1ccc(C(=O)Nc2ccc3c(c2)C(=O)N(C2CCCCC2)C3=O)cc1,"inconclusive: 18.4 µM [inhibitor, single point]"
13,COCCn1c(C)cc(C(=O)COC(=O)c2cccnc2SC)c1C,"inconclusive: 1.16 µM [activator, partial curve]"
14,O=C(Nc1ccccc1)N1CCN(c2nc3ccccc3s2)CC1,"inconclusive: 23.1 µM [inhibitor, single point]"
15,CCOCCOc1nc2c(c(=O)n(C)c(=O)n2C)n1CCc1ccccc1,"inconclusive: 20.6 µM [inhibitor, single point]"
16,O=C(Nc1ccccc1)Nc1ccc(C(F)(F)F)cn1,"inconclusive: 13 µM [activator, partial curve]"
17,C=CCC[C@@H](Cc1ccc(F)cc1)C(=O)OC[C@@H]1CCCN1C(=O)[C@@H](CC=C)CC(=O)N(CCO)Cc1ccccc1,"inconclusive: 23.1 µM [inhibitor, single point]"
18,Cc1ccnc(NC(=O)CC(NC(=O)c2ccccc2Cl)c2ccccc2)c1 (centres undefined),"inconclusive: 10.3 µM [activator, partial curve]"
19,COc1cccc(CNC(=O)COC(=O)c2cc([N+](=O)[O-])ccc2N2CCCC2)c1,"inconclusive: 29.1 µM [inhibitor, single point]"
20,COc1ccccc1NC(=O)Nc1ccnn1C1CCCCC1,"inconclusive: 18.4 µM [inhibitor, partial curve]"
21,CCOC(=O)C1=C(C)Nc2ncnn2C1c1c[nH]c2ccccc12 (centres undefined),inactive
22,COc1cc(C(=O)N/C(=C\c2cn(C)c3ccccc23)C(=O)NCCN2CCOCC2)cc(OC)c1OC,"inconclusive: 20.6 µM [activator, partial curve, poor fit]"
